The record followed here is PMC10185812.

Results are given in words; binding and its absence hold for the method and conditions named. Binding seen in cells or lysates may run through a third protein. These calls come from enrichment with a bait or labelling near it, and not all partners need be listed. For some of these results: A no says only that the protein was not detected with the bait.

Test [1] addresses T1, NEK1 (endogenous) (human (endogenous in ARPE-19, HeLa, HEK293, U2-O-S)) (UniProt Q96PY6).
T1 sequence: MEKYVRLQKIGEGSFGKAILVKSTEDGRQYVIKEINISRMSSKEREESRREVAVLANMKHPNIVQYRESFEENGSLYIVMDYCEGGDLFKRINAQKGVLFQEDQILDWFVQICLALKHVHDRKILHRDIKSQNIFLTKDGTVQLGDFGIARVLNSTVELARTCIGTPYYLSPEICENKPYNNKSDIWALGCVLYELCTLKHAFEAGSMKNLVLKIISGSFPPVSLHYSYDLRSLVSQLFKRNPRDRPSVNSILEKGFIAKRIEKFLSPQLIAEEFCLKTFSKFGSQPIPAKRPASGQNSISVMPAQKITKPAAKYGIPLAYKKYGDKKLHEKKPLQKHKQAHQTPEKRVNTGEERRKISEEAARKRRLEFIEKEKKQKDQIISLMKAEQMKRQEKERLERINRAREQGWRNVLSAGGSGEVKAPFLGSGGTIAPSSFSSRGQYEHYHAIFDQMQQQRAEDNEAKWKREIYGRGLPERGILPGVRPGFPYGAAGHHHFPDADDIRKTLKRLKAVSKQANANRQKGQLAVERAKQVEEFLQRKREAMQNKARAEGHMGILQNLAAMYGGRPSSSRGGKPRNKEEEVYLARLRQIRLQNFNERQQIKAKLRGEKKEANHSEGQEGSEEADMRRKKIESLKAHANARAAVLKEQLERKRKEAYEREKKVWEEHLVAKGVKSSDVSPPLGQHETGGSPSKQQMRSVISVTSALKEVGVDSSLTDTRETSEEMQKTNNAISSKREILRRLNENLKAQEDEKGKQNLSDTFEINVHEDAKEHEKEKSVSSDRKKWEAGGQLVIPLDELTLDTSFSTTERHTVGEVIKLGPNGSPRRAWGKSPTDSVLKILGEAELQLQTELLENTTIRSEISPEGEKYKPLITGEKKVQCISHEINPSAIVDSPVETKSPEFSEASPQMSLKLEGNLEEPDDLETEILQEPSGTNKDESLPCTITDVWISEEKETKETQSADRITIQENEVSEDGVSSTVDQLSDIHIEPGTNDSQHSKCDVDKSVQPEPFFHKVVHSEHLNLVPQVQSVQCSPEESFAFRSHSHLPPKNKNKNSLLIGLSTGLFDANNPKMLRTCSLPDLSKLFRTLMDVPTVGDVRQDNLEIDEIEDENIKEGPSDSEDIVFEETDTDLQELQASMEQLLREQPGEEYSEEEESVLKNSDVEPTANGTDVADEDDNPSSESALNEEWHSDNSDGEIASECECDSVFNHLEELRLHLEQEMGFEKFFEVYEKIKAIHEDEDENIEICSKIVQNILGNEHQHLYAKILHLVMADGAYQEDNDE
The experiment in a line: affinity purification with mass spectrometry; immunoprecipitation of endogenous NEK1 or C21ORF2 from ARPE-19 parental lysates (5 mg), the respective KO cells as control; washes with PBS, 0.5% NP-40; TMT-labelled quantitative LC-MS/MS, five replicates.

Test [2] deals with T2, C21ORF2 (endogenous) (human (endogenous in ARPE-19, HeLa, HEK293, U2-O-S)) (UniProt O43822).
T2 sequence: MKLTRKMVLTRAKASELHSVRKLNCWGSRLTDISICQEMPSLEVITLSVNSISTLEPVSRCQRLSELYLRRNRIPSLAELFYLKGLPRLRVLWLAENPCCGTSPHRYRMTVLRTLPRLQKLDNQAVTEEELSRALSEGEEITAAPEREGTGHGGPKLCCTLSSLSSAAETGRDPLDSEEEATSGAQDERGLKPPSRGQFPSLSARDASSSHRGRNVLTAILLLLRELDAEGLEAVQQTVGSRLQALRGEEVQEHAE
The test is described as above.

In the case of COL8A1 (from UniProt P27658 28-744), in test [1], the binding result is listed as “no binding”.

Consider C19ORF53 (from UniProt Q9UNZ5 1-99), for which the binding entry in test [1] was “no binding”.

B1: C21ORF2 (endogenous) (protein, UniProt O43822-1 1-256)
chain: T2 sequence
With B1, in test [1], the binding entry was “binds”.

B2: NEK1 (endogenous) (protein, UniProt Q96PY6-3 1-1286)
chain: T1 sequence
Turning to B2, the binding result in test [2] is reported as “binds”.
